# PubChem BioAssay AID1224828 | NIAID – 2016
# Screen: 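Knock-downs that increase or decrease LPS-induced p65 nuclear translocation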 (primary screen)
# Cells: mouse RAW264.7 G9 macrophage reporter cells (GFP-p65, Tnf promoter-mCherry)
# Reagent: siRNA pool against mouse genes, 100 nM
# Duration: 2 days siRNA transfection, then 40 min LPS before fixation
# Challenge: LPS (Salmonella minnesota R595) at 10 ng/ml
# Read-out: 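Microscopy ratio of nuclear to perinuclear-ring GFP-p65 signal, scaled to the plate median; gene score is the average of two replicate robust z-scores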
# Scale: p65 translocation robust z-score: higher = more nuclear NF-kappaB p65 after LPS than the plate median; nuclear/cytoplasmic p65 ratio: higher = more nuclear NF-kappaB p65
# Rule for the call: 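Called active when z exceeds 3.3 or falls under -1.56 (median of Tlr4 controls), giving activity score of at least 50; no calls for control wells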
# Calls: active = hit (p65 shift raised or lowered); inactive = no clear change
# This is an unselected part of about 17,000 reagents. 762 of all reagents (4.5%) count as active. 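Active calls include both raised and lowered p65 entry, mostly lowered; wells with fewer than 50 cells lack a z-score.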 Raw values vary from plate to plate and are shown uncorrected.
The opening 2 entries as a preview:
gene symbol,p65 translocation robust z-score,"nuclear/cytoplasmic p65 ratio, rep 1","nuclear/cytoplasmic p65 ratio, rep 2",low cell count flag,Call
Bpifa1,0.36,1.24,1.26,enough cells to score,inactive
Cdr2,1.24,1.62,1.55,enough cells to score,inactive

Main list, from the first entry:
gene symbol,p65 translocation robust z-score,"nuclear/cytoplasmic p65 ratio, rep 1","nuclear/cytoplasmic p65 ratio, rep 2",low cell count flag,Call
Bpifa1,0.36,1.24,1.26,enough cells to score,inactive
Cdr2,1.24,1.62,1.55,enough cells to score,inactive
Dbh,-0.18,1.36,1.33,enough cells to score,inactive
Dbt,-0.72,1.47,1.27,enough cells to score,inactive
C230012O17Rik,-0.1,1.57,1.77,enough cells to score,inactive
Asb2,-0.39,1.6,1.51,enough cells to score,inactive
Or6d14,-1.17,1.45,1.25,enough cells to score,inactive
Ngly1,-0.63,1.56,1.6,enough cells to score,inactive
Gjb2,-0.84,1.31,1.28,enough cells to score,inactive
Thbs2,-0.52,1.37,1.52,enough cells to score,inactive
Mlycd,1.27,1.94,1.82,enough cells to score,inactive
Ociad1,0.58,1.73,1.55,enough cells to score,inactive
Gtf3c2,-0.9,1.44,1.52,enough cells to score,inactive
Rabgap1l,-0.7,1.48,1.54,enough cells to score,inactive
Ptpn23,-0.75,1.39,1.31,enough cells to score,inactive
Or8b55,-0.16,1.45,1.2,enough cells to score,inactive
Fgf20,0.66,1.51,1.47,enough cells to score,inactive
Plekhb1,-1.03,1.24,1.11,enough cells to score,inactive
Eif4e3,,1.33,1.39,fewer than 50 cells per well; well left out of scoring,inactive
Capn8,-0.82,1.44,1.69,enough cells to score,inactive
Slpi,-0.51,1.47,1.43,enough cells to score,inactive
Iqcc,-1.38,1.39,1.59,enough cells to score,inactive
Tns2,0.2,1.61,1.48,enough cells to score,inactive
Clk4,-0.14,1.59,1.43,enough cells to score,inactive
Ces2e,-2.52,1.1,1.17,enough cells to score,active
Taf12,1.37,1.68,1.75,enough cells to score,inactive
Spz1,0.16,1.55,1.25,enough cells to score,inactive
Plagl1,1.45,1.61,1.34,enough cells to score,inactive
Nkx2-1,0.05,1.53,1.52,enough cells to score,inactive
Nr5a2,0.02,1.48,1.39,enough cells to score,inactive
Rab7b,2.03,1.59,1.77,enough cells to score,inactive
Thsd4,-0.16,1.6,1.58,enough cells to score,inactive
Arih1,0.41,1.72,1.64,enough cells to score,inactive
Ptprm,0.58,1.58,1.61,enough cells to score,inactive
Ccar1,0.07,1.62,1.78,enough cells to score,inactive
Mindy1,,1.04,0.871,fewer than 50 cells per well; well left out of scoring,inactive
Stip1,-1.35,1.34,1.36,enough cells to score,inactive
Rpl14,,1.28,1.06,fewer than 50 cells per well; well left out of scoring,inactive
Arap1,-1.05,1.42,1.63,enough cells to score,inactive
Cog3,-0.38,1.49,1.78,enough cells to score,inactive
